Results from patent publication US7214519B2, “Screening method for identifying heme independent modulators of soluble guanylyl cyclase (sGC) activity using αβCys105 mutant sGC” (Board of Regents of the University of Texas System, priority 2003, dated 2007).
Values joined by “and” are separate entries in the source; they are usually repeats but may differ in a detail not shown here. Equal entries are not always repeated. Where two headings read alike, the source gives them in different places.

Assays:
[1] = cited from earlier work
[2] = UV-Vis spectroscopy of sGC enzymes (heme content, Soret peak); assay type: physicochemical; conditions: after heme reconstitution

Molecule: Wild Type: recombinant wild type human soluble guanylyl cyclase expressed in Sf9 cells
- λmax of Soret peak ([1]; +NO, wild type): 399 nm
- λmax of Soret peak ([1]; Basal, wild type): 431 nm

Molecule: αβ^Cys105: heme-deficient, constitutively active human soluble guanylyl cyclase mutant; β subunit carries His105→Cys substitution
- λmax of Soret peak ([2]; +NO): 400 nm
- λmax of Soret peak ([2]; Basal): 417 nm

B1: αβ^Phe105: bovine sGC with βHis105→Phe substitution, from the literature (40) (protein, UniProt P19687 1-691; P16068 1-619, looked up, variant H105F)
Guanylate cyclase soluble … 1: MFCAKLKDLQITGDCPFSLLAPGQVPREPLGEATGSGPASTPGQPGVCPGVPDKNPPGRLPRRKTSRSRVYLHTLAESICKLIFPEFERLNLALQRTLAKHKIKENRKSLEREDFEKIVVDQAIAAGVPVEIIKESLGEELFKICYEEDEYILGVVGGTLKDFLNSFSTLLKQSSHCQEAEKKGRFEDASILCLDKDPDVLYVYYFFPKRITSLILPGIIKAAARILYETEVEVSSTPSRFHQDCREFVDQPCELYSVHIRSARPHPPPGKPVSSLVIPASLFCKTFPFHFMLDRDMSILQLGHGIRRLMSRRDVQGKPHFDEYFEILTPKISQTFSGIMTMLNMQFLVRVRRWDNSMKKSSRVMDLKGQMIYMVESSSILFLGSPCVDRLEDFTGRGLYLSDIPIHNALRDVVLIGEQARAQDGLKKRLGKLKATLEQAHQALEEEKRKTVDLLCSIFPSEVARQLWQGHAVQAKRFGNVTMLFSDIVGFTAICSQCSPLQVITMLNALYTRFDRQCGELDVYKVETIGDAYCVAGGLHKESDTHAVQIALMALKMMELSHEVVSPHGEPIKMRIGLHSGSVFAGVVGVKMPRYCLFGNNVTLANKFESCSVPRKINVSPTTYRLLKDCPGFVFTPRSREELPPNFPSDIPGICHFLEAYQQGTTSKPWFQKKDVEEANANFLGKASGID
Guanylate cyclase soluble … 2: MYGFVNHALELLVIRNYGPEVWEDIKKEAQLDEEGQFLVRIIYDDSKTYDLVAAASKVLNLNAGEILQMFGKMFFVFCQESGYDTILRVLGSNVREFLQNLDALFDHLATIYPGMRAPSFRCTDADKGKGLILHYYSEREGLQDIVIGIIKTVAQQIHGTEIDMKVIQQRNEECDHTQFLIEEKESKEEDFYEDLDRFEENGTQESRISPYTFCKAFPFHIIFDRDLVVTQCGNAIYRVLPQLQPGNCSLLSVFSLVRPHIDISFHGILSHINTVFVLRSKEGLLDVEKSECEDELTGTEISCLRLKGQMIYLPEADSILFLCSPSVMNLDDLTRRGLYLSDIPLHDATRDLVLLGEQFREEYKLTQELEILTDRLQLTLRALEDEKKKTDTLLYSVLPPSVANELRHKRPVPAKRYDNVTILFSGIVGFNAFCSKHASGEGAMKIVNLLNDLYTRFDTLTDSRKNPFVYKVETVGDKYMTVSGLPEPCIHHARSICHLALDMMEIAGQVQVDGESVQITIGIHTGEVVTGVIGQRMPRYCLFGNTVNLTSRTETTGEKGKINVSEYTYRCLMTPENSDPQFHLEHRGPVSMKGKKEPMQVWFLSRKNTGTEETEQDEN
modifications: mutation in beta subunit
- λmax of Soret peak ([1]; Basal, after heme reconstitution): 400 nm and 400^#,(40) nm
- Heme ([1]; αβ^Phe105, literature): No
